Measured values from PubChem BioAssay AID1508600 (Functional Genomics Laboratory (NCATS/FGL), 2020).
The campaign covered roughly 53,000 sequences. About 3,700 (7%) were called active.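 The calls were made as follows: active = gene knockdowns whose robust z-score for IL-1 alpha signal is at least 2 or at most -2, so actives lie on both sides; inactive = the rest.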 Some of the results follow.

Experiment: Components of the Cytosolic LPS Sensing Pathway: Gene Identification via Genome-wide siRNA Screen;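 also: robust z of the log signal after scaling to non-targeting control siRNA wells of the plate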
Conditions: RAW264.7 macrophages, IL-1a HTRF, actives lie on both sides, screened at 100 nM (by protocol), cells primed 5 h with Pam3CSK4 first
In short: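 RAW264.7 mouse macrophages reverse-transfected with single siRNAs (100 nM final) for 48h, primed with Pam3CSK4 for 5 hours, then transfected with LipidA for 24 hour. Supernatant IL-1a read by HTRF; values normalized to negative-control median, log-transformed robust z-scores.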

z-score, active:
GCCGGAAUCCUGUGGAAUCTT against Kat14 6.46
GGUGGCUGAAGAUGUGACUTT against Ttyh1 -3.46
GGUCUUCAUGGUCAAAGUGTT against Fzd10 2.11
GGCAAAAUCUAUUGUCUUCTT against Ran -2.2
GCUAGUCUACCCAAGUGACTT against Dennd6b 4.35
GGAUGAAACGGGUGCCUAUTT against Kctd5 3.33
GGAAGACACUGGUUUCCAATT against 1700067P10Rik 2.62
GGCAAGUUUGCUAUAACCUTT against Jmy -2.57
UUGAACAGUGGAACAAUGATT against Fbxo27 2.59
GGAGCUAAGGGAACAAUUATT against Psmc6 -2.1

z-score, inactive:
GAUGCCUUUUUUGUAGGCATT against Olfr539 -0.13
CGAGGUGAAGGAUUACACCTT against Crispld2 0.263
GCAGCAUCGCGUAGAAACATT against Gar1 -0.566
GGACAUUUUCUUUUCACGUTT against Nhlrc3 -0.222
GGUGUUUGAUGUGGUGAACTT against Ppwd1 -0.964
GGCCUGUGAUCAGAUGUACTT against Uqcc2 -1.02
GCGGCUUGCCAAGACAGUATT against Grpr 1.34
GCUGUUGUUCAAUGCCCUGTT against Olfr392 -0.616
GGGCUUUAGCCUGAGCGAUTT against Gpc1 -0.916
GGUCACUCCCACUUCGUUATT against Rack1 -1.3
GCCUGUUAUAUGUGGCCUUTT against Olfr1352 0.673
GGAGAUUGUGCUGAAGUUUTT against Tmc3 1.08
CGGCCAUUAACUCAUGCAATT against Slurp1 -0.677
CCCAGACUUAUUUCAUCACTT against Rgs12 1.07
GGAGGAUUGUUUGAACCAATT against Myrip 1.13
GGAAAAUGGAAGAAAAGCATT against Ddhd1 -1.18
GGGAUGAACAUUUUAGGUCTT against Slc1a4 -0.607
GCAAGUAGCAUCUCUGAUUTT against Nfs1 1.03
GUUCAAACAGUUUUUCAGATT against Tas2r115 -0.657
GGGAGAAUUGGAAAGCAGUTT against Myb -1.23
GGAAAUAUGUUAUUUCCCATT against Acot12 -0.309
GGUGAUAACCCUGAACAUATT against Rps6kb1 -0.545
GGUGAUACCUCUGUCCUGGTT against Exosc5 -1.17
GGUGAAGUACAACUAUACUTT against Plxna1 -0.653
GGAGACAGGUGCUACAACUTT against Lin28a -1.97
GGACUUCCUGACUAUCAUGTT against Tesc 1.59
GGCUUAUGUGCAUAAAAGUTT against Magoh -0.372
GCAGCUAGAGGAGUUUCUATT against Clu 0.385
GCCACGAGAAGUGAACCAATT against Smg7 -1.64
GGGUCAUGUAGGGAUAAAATT against Msrb3 -1.53
GGAAAAAUUCGAGGGACUGTT against Rcan2 1.12
GGCGCAUGUUCACAAAGUGTT against Npc1 0.155
GCAGAAGUGUCAAUAAAACTT against Synj2 -0.0828
GGGCAAGAUGUUUUUCUUCTT against Mfsd10 0.434
CCGUGGCAUGUUCAUGAAATT against Mpg 0.181
CCACUAUUCUUAACUUGGCTT against Hdac7 0.194
GCCGCCAUGGACUUACAAGTT against Stim2 0.237
CCUACAAGCAGAGUACAAUTT against Myo10 1.06
GGCGGUGCAGUUCUGUAAATT against Kif18a 0.752
GGAAAUCACUGCACUGGCUTT against Actc1 0.931
GGACAAAAAAAUAGAAGGATT against Rrbp1 0.344
GGAUAGCACAGCCCUACAUTT against Kcns1 -0.197
GGAGCACGGAAACUUGUUCTT against Metap1 0.799
GAGAAAACAUGACCUGGGUTT against Olfr456 -1.07
GGGUCAAGGUAGUAGUACCTT against Tob1 0.275
GGCAGUAUAAUUCGUUGUATT against Mtrex 1.16
CCAUGGUCAUCCCGAUGUUTT against Olfr1454 0.171
GGGAAUCUUUGUAAACAGATT against Abhd14b -0.351
GGAUCUAUCUCUAGUCCCGTT against Zfp358 -1.74
GGAUCUCUGGGUCUGAAAATT against Ccz1 0.606
CCAGCUAAAAAGAUGGUAGTT against Rreb1 0.319
GGACUUCACCAUCUAUAACTT against Vangl1 -1.04
GGAGUAAUCAUGCUGGAGCTT against 9930104L06Rik -0.102
GAAACUGUAACAGUCUAUATT against Spp1 0.951
GUGAUGUCACUAAUGCCAATT against Cd99 0.628
CGACCUGUUUGAAAACACCTT against Cnn1 -0.0803
GGGAGAGAAGCCAUAUAAATT against Zfp7 -1.47
GCCUACAAUCGAGACAGUUTT against Sgca 1.15
GGUCUCUUUAGUUAAGAUGTT against Wrn -0.149
GCUAAUGCUGCGUAUUUGCTT against Cops7b -0.159
CCUGACUCUACAUUUUACATT against Tab3 -0.581
GCUACCUAAUGAAGAGGCCTT against Arhgef28 0.966
GGUUACUGGUAAAUGGCAGTT against Olfr1505 1.24
GGAAGGCUUUCAAGAUUCATT against Gsta1 -0.128
AACCUGGCUCAUAUCCCAUTT against Retnlg -0.318
GGAAGAGGUGAAUGAUAAATT against Bmi1 1.51
GGCCUCCAAAUGAACAGCATT against Trmt61a -0.365
GGUUUCAGGAAAGAAACAATT against Epb42 -0.482
GGAAAGCUUUCUAUUACAATT against Zfp809 0.634
GGCUGCAUUUCCAAAUGAUTT against Zfp819 0.403
GCAAAUAUUGGCCACUCUCTT against Prpf19 -0.523
CCUGCAUGAUUCUUACAUGTT against Mrgprd 1.08
GGUGUUGAGAAGAAAAAUATT against Spz1 1.68
GGGUGUUUGCUCAGAGAUGTT against Rtp3 -0.669
GGAGUUGAAGUUUGUGACATT against Acpp -1.76
GGAGCUCUUCCAGUUGUUUTT against Khk -1.51
CCAUAACCACCUGUCAUUGTT against Mrpl55 -1.63
GCCUCCUUUGCUUCAUUUCTT against Fcer1g 1.83
CCCAAAAAUUGACAAGUCATT against Batf -0.882
CCAUAUCAGGCAUAGCAGUTT against Nthl1 -0.772
GGGCGUACUGGAAACACAUTT against Pou3f4 1.84
GGUACAUUUCUAGCUUUGATT against Nfya -0.47
GGAAGAGCUUUCUGGAAAUTT against Ndrg2 0.226
GCGGGACCAGGAGUAAACUTT against Pabpn1l 1.5
GGCCUUGAGAGGCUAAUACTT against Spata20 -1.27
GGUUCAAGUGACCAAGUUCTT against Odf3 -0.487
GACAAGCAAUAAAGAAAGATT against Lce1l -1.45
GCCUCAGUUUGAAAUUGUUTT against Tbrg1 -0.695
CGUGUUCAAAAGAGUUUUCTT against Sos1 1.22
CCUUCGUCUGGAUUCUUAATT against Stard3 -0.413
GGUGGAUCGCUUUAACCUGTT against Acd 0.895
GCUUUAGCUUUCCCUCGUUTT against Rsl1 1.47
GGAAUCAAAACAAUCGAAUTT against Nfia -0.485
GGGUUAAAGCGAGUGGGUCTT against Rrnad1 0.0249
GCCUUUCUUCAGUGUUCACTT against Gm128 0.498
GUUCCAGUUUAUCCCUUCUTT against Klra1 0.255
CGGACUAUUGUGUUGUUAATT against Atoh1 1.23
GCUUGAAGCGAUUAUUUGUTT against Slc25a14 0.704

An excerpt of the results above, as a working copy:
z-score, inactive:
GGGUUAAAGCGAGUGGGUCTT against Rrnad1 0.0249
GCCUUUCUUCAGUGUUCACTT against Gm128 0.498
GUUCCAGUUUAUCCCUUCUTT against Klra1 0.255
